PubChem BioAssay AID1259300, Sanger Institute – 2017

Purpose: 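Which knock-downs harm HCT15 alone or synergise with the drugs BYL719, cetuximab or trametinib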 (primary screen)
System: HCT15 colorectal cancer cells
Reagents: siRNA pool against human genes
Challenge: anchor drug or DMSO vehicle added 24 h after seeding: BYL719 1 µM, cetuximab 5 µg/ml, trametinib 10 nM; drug doses chosen to barely affect viability alone
Measurement: 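Replicate-mean viability relative to non-targeting pool control with robust z-score for knock-down without drug; per-drug synergy scores for BYL719 (1 µM), cetuximab (5 µg/ml), trametinib (10 nM)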
Reading the numbers: viability z-score, siRNA alone: higher = more viable cells after knock-down; viability vs non-targeting, siRNA alone: higher = more viable cells
Active means: 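Called active (essential) if viability z-score with knock-down alone falls below -3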
Calls: active = essential: knock-down alone lowers viability (z below -3); inactive = no strong viability loss with knock-down alone
Here is an unselected part of 794 deposited reagents. Over the whole deposit, 18 (2.3%) were called active. 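Calls rest on knock-down alone, not drug synergy; depositor treated synergy scores above 0.15 as synergistic; drug doses alone had little viability effect.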 Viability is capped at 1. Not all columns of the deposit are shown. Reagent sequences are not shown. Not stated in the record: the amount of reagent, the time to read-out.

NME3 (GeneID 4832)
- viability z-score, siRNA alone: -0.0156
- viability vs non-targeting, siRNA alone: 0.953
- Call: inactive

MKNK1 (GeneID 8569)
- viability z-score, siRNA alone: -0.399
- viability vs non-targeting, siRNA alone: 0.926
- Call: inactive

PIP5KL1 (GeneID 138429)
- viability z-score, siRNA alone: 0.191
- viability vs non-targeting, siRNA alone: 0.968
- Call: inactive

STKLD1 (GeneID 169436)
- viability z-score, siRNA alone: 0.625
- viability vs non-targeting, siRNA alone: 1
- Call: inactive

The list goes on (2 carried over from the part before).
PIP5KL1 (GeneID 138429)
- viability z-score, siRNA alone: 0.191
- viability vs non-targeting, siRNA alone: 0.968
- Call: inactive

STKLD1 (GeneID 169436)
- viability z-score, siRNA alone: 0.625
- viability vs non-targeting, siRNA alone: 1
- Call: inactive

ACVR2B (GeneID 93)
- viability z-score, siRNA alone: 0.511
- viability vs non-targeting, siRNA alone: 0.992
- Call: inactive

MAK (GeneID 4117)
- viability z-score, siRNA alone: 0.625
- viability vs non-targeting, siRNA alone: 1
- Call: inactive

PTK2B (GeneID 2185)
- viability z-score, siRNA alone: -0.159
- viability vs non-targeting, siRNA alone: 0.943
- Call: inactive

DGKI (GeneID 9162)
- viability z-score, siRNA alone: 0.389
- viability vs non-targeting, siRNA alone: 0.983
- Call: inactive

ADCK1 (GeneID 57143)
- viability z-score, siRNA alone: 0.625
- viability vs non-targeting, siRNA alone: 1
- Call: inactive

ATR (GeneID 545)
- viability z-score, siRNA alone: -0.058
- viability vs non-targeting, siRNA alone: 0.95
- Call: inactive

MAP4K1 (GeneID 11184)
- viability z-score, siRNA alone: -0.686
- viability vs non-targeting, siRNA alone: 0.905
- Call: inactive

DYRK1A (GeneID 1859)
- viability z-score, siRNA alone: 0.422
- viability vs non-targeting, siRNA alone: 0.985
- Call: inactive
